These are yes or no findings as the source states them, for the method shown. A result given as binding can be weak or reduced; the word gives no strength.
What was measured:
[1] = target: T1, AtTTG1 (Arabidopsis) (UniProt Q9XGN1); test: two-hybrid; Matchmaker Gold Yeast Two-Hybrid System; baits in pGBKT7, prey MrMYB6 in pGADT7, co-transferred into Y2H yeast; growth and alpha-galactosidase activity on SD/-Leu/-Trp/-His/-Ade with X-alpha-Gal
T1 sequence: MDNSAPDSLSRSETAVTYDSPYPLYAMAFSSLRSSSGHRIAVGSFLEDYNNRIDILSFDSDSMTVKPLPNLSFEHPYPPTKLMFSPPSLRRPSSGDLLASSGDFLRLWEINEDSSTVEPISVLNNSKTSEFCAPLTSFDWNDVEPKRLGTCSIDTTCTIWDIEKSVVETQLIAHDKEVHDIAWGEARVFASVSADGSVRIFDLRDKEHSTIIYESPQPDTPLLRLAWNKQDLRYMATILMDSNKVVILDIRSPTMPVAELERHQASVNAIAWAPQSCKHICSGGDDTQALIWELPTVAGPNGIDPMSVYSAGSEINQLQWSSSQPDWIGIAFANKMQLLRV

[2] = target: T2, AtTT8 (Arabidopsis) (UniProt Q9FT81); test: as above
T2 sequence: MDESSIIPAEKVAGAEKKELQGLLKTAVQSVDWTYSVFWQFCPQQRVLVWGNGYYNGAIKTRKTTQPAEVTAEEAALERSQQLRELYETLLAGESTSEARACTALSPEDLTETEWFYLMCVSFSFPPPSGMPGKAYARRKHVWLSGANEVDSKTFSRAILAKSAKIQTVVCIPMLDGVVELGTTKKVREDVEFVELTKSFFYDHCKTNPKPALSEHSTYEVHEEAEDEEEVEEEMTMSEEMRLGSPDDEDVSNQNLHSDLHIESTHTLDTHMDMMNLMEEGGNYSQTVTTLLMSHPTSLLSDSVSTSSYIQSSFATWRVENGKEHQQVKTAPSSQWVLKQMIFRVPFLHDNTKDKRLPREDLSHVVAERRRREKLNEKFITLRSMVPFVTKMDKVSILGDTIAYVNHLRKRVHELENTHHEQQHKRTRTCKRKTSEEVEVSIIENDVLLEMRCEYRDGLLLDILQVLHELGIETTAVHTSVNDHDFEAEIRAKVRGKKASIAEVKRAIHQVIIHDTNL

## MrMYB6
[1]
  binding: binds
[2]
  binding: binds

From paper PMC8253226
